Experimental data reported in PubChem BioAssay AID2551 (National Center for Advancing Translational Sciences (NCATS), 2010).
About 17,000 (5.5%) of roughly 310,000 compounds were called active. The inconclusive results got no clear call from the source; some entries with a clear call stand among them for comparison. The call rests on the fitted dose curve; in most records, active means well fitted inhibition curve with a large enough effect; inconclusive means small, poorly fitted or top-dose-only effect, or effect the other way; inactive means no such curve, though single readings can be large or run the other way. Potencies beside an inconclusive call are fits to weak or partial responses and may not hold up.

The chains behind the UniProt entries cited, without tags or fusion partners. Where a name states a change or a piece, a line headed by the entry shows the natural chain unless it says otherwise.
UniProt P51450: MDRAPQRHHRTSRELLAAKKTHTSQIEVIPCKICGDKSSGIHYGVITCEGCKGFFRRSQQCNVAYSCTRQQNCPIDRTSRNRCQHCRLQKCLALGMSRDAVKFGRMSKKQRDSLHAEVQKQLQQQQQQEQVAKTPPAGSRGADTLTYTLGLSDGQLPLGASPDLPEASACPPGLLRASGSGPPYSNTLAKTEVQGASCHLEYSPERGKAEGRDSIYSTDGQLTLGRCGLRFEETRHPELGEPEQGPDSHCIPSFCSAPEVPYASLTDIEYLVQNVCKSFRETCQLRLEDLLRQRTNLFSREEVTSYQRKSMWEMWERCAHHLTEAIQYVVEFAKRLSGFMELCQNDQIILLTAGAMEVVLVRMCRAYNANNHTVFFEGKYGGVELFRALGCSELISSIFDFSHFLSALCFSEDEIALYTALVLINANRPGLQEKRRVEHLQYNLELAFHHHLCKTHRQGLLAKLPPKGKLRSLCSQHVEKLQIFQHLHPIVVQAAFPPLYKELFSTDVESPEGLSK

These compounds were tested against Nuclear receptor ROR-gamma (Mus musculus) (UniProt P51450) (assay: qHTS for inhibitors of ROR gamma transcriptional activity). Settings: Drosophila S2 Gal4-RORgamma UAS-luciferase reporter, 20 h; activity change, negative = inhibition: at 53.6 µM (top of the series).
Outline: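 Read-out: Photinus luciferase luminescence; inhibitors lower reporter signal. Insect Schneider cells with Gal4-ROR gamma fusion under metallothionein promoter, UAS reporter; 700 uM final copper sulfate induction, 20 hr, ambient temperature.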
Further: nearly all actives have a fitted effect of over 60% in size.
On the % scale 0 is the no-effect control and ±100 the full control effect; potency means the concentration at half of the fitted maximal effect.

Row | Structure (SMILES) | Potency | activity change, negative = inhibition
1 | CC(C)CCOc1ccc(CO[C@@H]2[C@H]3OC(C)(C)O[C@H]3O[C@@H]2C(O)CO)cc1 (stereo not given in full) | inconclusive: 35.5 µM [activator, single point] | –
2 | CCC(C)c1ccc(NC(=O)CC(C)=O)cc1 (stereo not given) | inconclusive: 4.47 µM [inhibitor, partial curve] | –
3 | Cc1ccc(-c2cc([C@H]3[C@@H]4C=CCC[C@@]4(C)C(=O)N3Cc3ccccc3)ccc2F)cc1 | inconclusive: 12.6 µM [activator, single point] | –
4 | Cc1[nH]n(C2=NCCS2)c(=O)c1N=Nc1cccc(C(F)(F)F)c1 | active: 0.282 µM | –
5 | COc1ccc2cnn(-c3ccc(OC(F)(F)F)cc3)c(=O)c2c1OC | inconclusive: 17.8 µM [activator, single point] | –
6 | CCc1c2ccccc2nn1-c1ccccc1C(=O)C(C)=O | inactive | –
7 | Nc1ccc(O)cc1C(=O)OCC(=O)c1ccc(C2CCCCC2)cc1 | active: 7.08 µM | –
8 | CCN(CC)S(=O)(=O)c1ccc(-c2cc(C(=O)OC)sc2C(F)(F)F)cc1 | inconclusive: 0.891 µM [activator, full curve, poor fit] | –
9 | Oc1ccc(/C=N/n2cnn(Cc3ccccc3Cl)c2=S)c(O)c1 | – | inactive: 2.09% [at 10 µM]
10 | COc1ccc(Cl)cc1NCCC(O)c1ccc(F)cc1 (stereo not given) | inactive | –
11 | CCC(C(=O)Nc1ccc2c(c1)OCCO2)n1c(=O)[nH]c2ccccc2c1=O (stereo not given) | inactive | –
12 | O=C(Nc1nccs1)c1c(O)c2c([nH]c1=O)CCCC2 | inconclusive: 2.24 µM [inhibitor, single point] | –
13 | O=C(CC(Sc1ccc(Br)cc1)C(=O)O)c1ccc(F)cc1 (stereo not given) | inconclusive: 25.1 µM [inhibitor, single point] | –
14 | Cc1cc(NC(=S)N(CCN2CCCCC2)Cc2ccco2)ccc1Cl | inconclusive: 6.31 µM [inhibitor, single point] | –
15 | c1ccc2c(c1)CCN(c1ncnc3c1[nH]c1ccccc13)C2 | active: 12.6 µM | –
16 | N#Cc1ccccc1NC(=O)CSc1ccc([N+](=O)[O-])cn1 | inactive | –
17 | O=C(c1cccc(S(=O)(=O)NCCOc2ccccc2)c1)N1CCN(c2ncccn2)CC1 | inconclusive: 17.8 µM [activator, single point] | –
18 | CC(=O)c1ccc(NC(=S)NC(=O)c2c(Cl)c(C)nn2C)cc1 | inconclusive: 20 µM [inhibitor, single point] | –
19 | O=C(Nc1ccc(Cl)c(Cl)c1)N1CCOCC1 | inconclusive: 31.6 µM [activator, single point] | –
20 | CCOc1ccc(C(=O)NC(=S)Nc2cccc(NC(=O)c3ccco3)c2)cc1[N+](=O)[O-] | active: 6.31 µM | –

Quoted from the listing.
Entry of CCOc1ccc(C(=O)NC(=S)Nc2cccc(NC(=O)c3ccco3)c2)cc1[N+](=O)[O-] under Potency: active: 6.31 µM
Entry of Cc1cc(NC(=S)N(CCN2CCCCC2)Cc2ccco2)ccc1Cl under Potency: inconclusive: 6.31 µM [inhibitor, single point]
